Key:
HL-60 = experiment: Proliferation study, CellTiterGlo, 4 days (Example 102), HL-60; assay type: cell-based; conditions: HL-60, 4 days treatment, slope of concentration response curve
Description: (§1) The objective of the study was to evaluate the ability of representative compounds of the present invention, inhibitors of Menin/MLL interaction to inhibit cell proliferation. The proliferation inhibitory effect was investigated in two human MLL-leukemia cells selected on the bases of MLL fusion protein and listed in Table 102. HL-60 cell line was used as negative control.
(§2) ATP is present in all metabolically active cells and is considered as a marker for cell viability and proliferation. The metabolic cell activity was determined using the CellTiter-Glo kit from Promega, an ATP monitoring system based on the production of luminescence by the reaction of ATP with added UltraGlo® recombinant luciferase (Kawano et al., 2016), according to the supplier's experimental recommendations.
(§3) The described assay evaluates the ability of 4 representative compounds to inhibit the cell proliferation in the human MLL-leukemia cells plus a negative control cell line.
(§4) The assay provides potency values (IC50) for each test compound at a single time point Day 4 (T4).
(§5) Seven concentrations of the compounds (2.00E-05-6.67E-06-2.22E-06-7.41E-07-2.47E-07-8.23E-08-2.74E-08M), were assessed in duplicate in an individual test occasion in all the cell lines. MI-503 (Borkin et al., 2015) was used as reference compound and was tested at the same concentrations as the NCEs. 100% of proliferation is represented by the untreated cells (0.2% DMSO). The cell growth was monitored up to 4 days in culture.
(§6) MV4-11, MOLM-13 and HL-60 cells (see Table 2) were maintained in RPMI-1640 medium (Invitrogen, Cat. n. 618700, Batch n. 1965930) supplemented with 10% of Heat Inactivated FBS (Invitrogen, Cat n. 10500, Batch n. 08Q8078K) and 1% Pen-Strep (Invitrogen, Cat. N. 15140, Batch n. 1910859) and cultured at 37° C. in a humidified incubator with 5% CO2. All the cell lines grow in suspension and the cell density was maintained in a range of 2×10^5-1×10^6 viable cells/ml. Cells were pelleted at 130 g×5 min and conditioned medium was used to dilute the cell suspension.
(§7) Test items were dissolved in glass vials at 10 mM in DMSO with purity ≥99.9% (Sigma, D8418, batch n. SHBH4245V) and stored at −20° C. in 1.5 mL Eppendorf tubes.
(§8) Serial dilutions 1 to 3 in DMSO 100% were prepared starting from a 10 mM stock solutions to generate 7 points concentration response curve (CRC).
(§9) For each plate to test, one 0.4 μL copy plate and four 0.3 μL copy plates were then stamped into 96-well plates not treated for cell adhesion (Sarstedt—cat.no. 82.1581.001) by acoustic liquid Handling, Echo, at a concentration which was 500 fold the final assay concentration. Stamped plates were stored at −20° C. The final concentrations for the reference compound, MI-503, and the test items were: 2.00E-05, 6.67E-06, 2.22E-06, 7.41E-07, 2.47E-07, 8.23E-08 and 2.74E-08 M.
Cells were plated in 96-well flat bottom microtiter plates at cell density of 15,000 cells/ml for HL-60, 1000 cells/ml for MOLM-13 and 10,000 cell/ml for MV4-11. […] Luminescence was read by using VictorV (Perkin Elmer) multilabel plate reader using the standard protocol for luminescence in 96 well plate. […]
(§10) Data were expressed as % of inhibition compared to the 0.2% DMSO negative control, and was calculated as follows: […]
CRCs were analysed by GraphPad and IC50 values were calculated by non-linear regression using 4 parameter-logistic equation. […]

MV4-11 (MLL-AF4) = experiment: Proliferation study, CellTiterGlo, 4 days (Example 102), MV4-11; assay type: cell-based, human; conditions: MV4-11, 4 days treatment, slope of concentration response curve
Description: as §1, §2, §3, §4, §5, §6, §7, §8, §9
(§11) Cells were plated in 96-well flat bottom microtiter plates at cell density of 15,000 cells/ml for HL-60, 1000 cells/ml for MOLM-13 and 10,000 cell/ml for MV4-11. Cells were treated with 0.2% DMSO (Sigma, D8418, batch n. SHBH4245V) or serial dilutions of compounds (0.027 μM-20 μM) in DMSO (0.2% final concentration). Cells were incubated in a 5% CO2 incubator at 37° C. for 4 days. A CellTiterGlo viability assay (Promega) was employed. Luminescence was read by using VictorV (Perkin Elmer) multilabel plate reader using the standard protocol for luminescence in 96 well plate. The experiment was performed in duplicate.
as §10
(§12) CRCs were analysed by GraphPad and IC50 values were calculated by non-linear regression using 4 parameter-logistic equation. IC50 (μM) values were reported in the final data table. The curve fittings were performed leaving free all the parameters. Any constrain were reported in the results table.

MOLM-13 (MLL-AF9) = experiment: Proliferation study, CellTiterGlo, 4 days (Example 102), MOLM-13; assay type: cell-based, human; conditions: MOLM-13, 4 days treatment, slope of concentration response curve
Description: as §1, §2, §3, §4, §5, §6, §7, §8, §9, §11, §10, §12

Row | Structure (SMILES) | HL-60 slope (HL-60) | MV4-11 (MLL-AF4) slope (MV4-11 (MLL-AF4)) | MOLM-13 (MLL-AF9) slope (MOLM-13 (MLL-AF9))
1 | O=C(Nc1ccc(-c2cc3c(N4CCOCC4)ncnc3[nH]2)cc1)Nc1cc(-c2cccnc2)n[nH]1 [Compound 9, 1-{4-[4-(morpholin-4-yl)-7H-pyrrolo[2,3-d]pyrimidin-6-yl]phenyl}-3-[3-(pyridin-3-yl)-1H-pyrazol-5-yl]urea] | 0.7 | 0.8 | 1.1
2 | O=C(Cc1cc(-c2cccnc2)n[nH]1)Nc1ccc(-c2cc3c(N4CCOCC4)ncnc3[nH]2)cc1 [Compound 10, N-{4-[4-(morpholin-4-yl)-7H-pyrrolo[2,3-d]pyrimidin-6-yl]phenyl}-2-[3-(pyridin-3-yl)-1H-pyrazol-5-yl]acetamide] | 1.6 | 2.9 | 2.5
3 | Cn1nc(-c2cccnc2)cc1CC(=O)Nc1ccc(-c2cc3c(N4CCOCC4)ncnc3[nH]2)cc1 [Compound 11, 2-[1-methyl-3-(pyridin-3-yl)-1H-pyrazol-5-yl]-N-{4-[4-(morpholin-4-yl)-7H-pyrrolo[2,3-d]pyrimidin-6-yl]phenyl}acetamide] | 1.1 | 1.5 | 2.6
4 | O=C(Cc1cc(-c2cccnc2)n[nH]1)Nc1ccc(-c2nc3c(N4CCOCC4)ncnc3[nH]2)cc1 [Compound 12, N-{4-[6-(morpholin-4-yl)-9H-purin-8-yl]phenyl}-2-[3-(pyridin-3-yl)-1H-pyrazol-5-yl]acetamide] | – | 4.1 | 13.1
5 | Cc1cn(-c2ncnc3[nH]c(-c4ccc(NC(=O)Cc5cc(-c6cccnc6)n[nH]5)cc4)cc23)cn1 [Compound 13, N-{4-[4-(4-methyl-1H-imidazol-1-yl)-7H-pyrrolo[2,3-d]pyrimidin-6-yl]phenyl}-2-[3-(pyridin-3-yl)-1H-pyrazol-5-yl]acetamide] | 1.1 | 1.1 | 1.4
6 | Cc1c(CN2CCC(Nc3ncnc4sc(CC(F)(F)F)cc34)CC2)ccc2c1cc(C#N)n2Cc1cn[nH]c1 [MI-503, reference compound] | 1 | 1.4 | 1

From US20240140953A1, “INHIBITORS OF MENIN-MLL INTERACTION” (BIOMEA FUSION, INC., priority 2018, published 2024)
